Binding data for two substances are collected here from PMC8406779.

These are yes or no findings as the source states them, for the method shown. Binding seen in cells or lysates may run through a third protein. A result given as binding can be weak or reduced; the word gives no strength.

For this experiment, the target named is T1, dmCyclin T (D. melanogaster (endogenous in adult flies)) (UniProt O96433).
T1 sequence: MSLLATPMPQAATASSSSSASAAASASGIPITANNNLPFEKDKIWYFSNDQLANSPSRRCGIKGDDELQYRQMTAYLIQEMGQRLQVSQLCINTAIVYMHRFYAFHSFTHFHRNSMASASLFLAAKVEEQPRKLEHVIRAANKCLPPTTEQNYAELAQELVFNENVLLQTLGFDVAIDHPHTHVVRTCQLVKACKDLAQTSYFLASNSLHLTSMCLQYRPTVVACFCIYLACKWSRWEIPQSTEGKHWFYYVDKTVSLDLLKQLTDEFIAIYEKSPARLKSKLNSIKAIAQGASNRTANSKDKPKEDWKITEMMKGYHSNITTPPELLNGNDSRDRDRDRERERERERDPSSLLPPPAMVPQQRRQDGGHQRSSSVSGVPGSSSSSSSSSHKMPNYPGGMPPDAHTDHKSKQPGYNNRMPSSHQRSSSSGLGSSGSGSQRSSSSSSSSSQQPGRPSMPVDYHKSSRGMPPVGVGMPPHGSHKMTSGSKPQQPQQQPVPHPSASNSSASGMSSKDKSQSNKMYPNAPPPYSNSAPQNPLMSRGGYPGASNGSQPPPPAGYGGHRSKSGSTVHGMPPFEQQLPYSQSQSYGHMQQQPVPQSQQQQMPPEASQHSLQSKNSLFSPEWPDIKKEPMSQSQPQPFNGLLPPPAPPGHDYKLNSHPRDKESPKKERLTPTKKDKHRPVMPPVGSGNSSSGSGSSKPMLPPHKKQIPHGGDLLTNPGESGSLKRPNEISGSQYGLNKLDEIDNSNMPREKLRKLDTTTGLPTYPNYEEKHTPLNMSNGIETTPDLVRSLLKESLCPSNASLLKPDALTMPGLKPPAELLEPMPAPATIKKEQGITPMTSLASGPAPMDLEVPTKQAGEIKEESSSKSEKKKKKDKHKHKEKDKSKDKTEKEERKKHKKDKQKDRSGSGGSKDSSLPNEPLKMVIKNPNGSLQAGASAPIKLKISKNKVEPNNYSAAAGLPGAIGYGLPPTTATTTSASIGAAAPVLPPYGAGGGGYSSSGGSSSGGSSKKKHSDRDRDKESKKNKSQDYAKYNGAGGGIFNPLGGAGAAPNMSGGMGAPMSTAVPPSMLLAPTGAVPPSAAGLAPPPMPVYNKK
The experiment in a line: co-IP; antibodies against dmHEXIM or dmCyclin T crosslinked to G/A sepharose magnetic beads; 750 ug protein extract from 60 adult flies, overnight at 4 °C; bound fraction analysed by western blot with dmHEXIM and dmLARP7 antibodies. (Immunoblotting shows a protein as a band on a membrane.)

Regarding dmHEXIM, the binding entry is recorded as “binds”.
As to dmLARP7, the binding entry is “binds”.
